Test results as given in the supplement of paper PMC8728848.
This is one part of the list.

Columns and labels:
Assay in all cases: glycan array binding signal (z-score within array); higher = stronger binding
Conditions in all cases: glycan notation: IUPAC condensed, linker removed
[1] = target: Gal(b1-3)GlcNAc(b1-2)Man(a1-3)[Gal(b1-3)GlcNAc(b1-2)Man(a1-6)]Man(b1-4)GlcNAc(b1-4)GlcNAc
Method in brief: (§1)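 The binding signal is a Z-score computed within each array and averaged over linkers. Arrays of the same protein sequence at different concentrations or buffers were also averaged together. Data originate from 3228 arrays in the Consortium for Functional Glycomics database, kept only where the protein sequence was available.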

[2] = target: Gal(b1-3)GlcNAc(b1-2)Man(a1-3)[Gal(b1-3)GlcNAc(b1-2)Man(a1-6)]Man(b1-4)GlcNAc(b1-4)[Fuc(a1-6)]GlcNAc
Method in brief: as §1

[3] = target: Gal(b1-3)GlcNAc(b1-2)Man(a1-3)[GlcNAc(b1-4)][Gal(b1-3)GlcNAc(b1-2)Man(a1-6)]Man(b1-4)GlcNAc(b1-4)GlcNAc
Method in brief: as §1

[4] = target: Gal(b1-3)GlcNAc(b1-2)[Gal(b1-3)GlcNAc(b1-6)]Man(a1-6)[Gal(b1-3)GlcNAc(b1-2)Man(a1-3)]Man(b1-4)GlcNAc(b1-4)GlcNAc
Method in brief: as §1

[5] = target: Gal(b1-3)GlcNAc(b1-3)Gal(b1-3)GlcNAc
Method in brief: as §1

[6] = target: Gal(b1-3)GlcNAc(b1-3)Gal(b1-4)Glc
Method in brief: as §1

[7] = target: Gal(b1-3)GlcNAc(b1-3)Gal(b1-4)GlcNAc
Method in brief: as §1

[8] = target: Gal(b1-3)GlcNAc(b1-3)Gal(b1-4)GlcNAc(b1-2)Man(a1-3)[Gal(b1-3)GlcNAc(b1-3)Gal(b1-4)GlcNAc(b1-2)Man(a1-6)]Man(b1-4)GlcNAc(b1-4)GlcNAc
Method in brief: as §1

[9] = target: Gal(b1-3)GlcNAc(b1-3)Gal(b1-4)GlcNAc(b1-2)[Gal(b1-3)GlcNAc(b1-3)Gal(b1-4)GlcNAc(b1-6)]Man(a1-6)[Gal(b1-3)GlcNAc(b1-3)Gal(b1-4)GlcNAc(b1-2)Man(a1-3)]Man(b1-4)GlcNAc(b1-4)[Fuc(a1-6)]GlcNAc
Method in brief: as §1

[10] = target: Gal(b1-3)GlcNAc(b1-3)Gal(b1-4)GlcNAc(b1-3)Gal(b1-4)GlcNAc(b1-2)[Gal(b1-3)GlcNAc(b1-3)Gal(b1-4)GlcNAc(b1-3)Gal(b1-4)GlcNAc(b1-6)]Man(a1-6)[Gal(b1-3)GlcNAc(b1-3)Gal(b1-4)GlcNAc(b1-3)Gal(b1-4)GlcNAc(b1-2)Man(a1-3)]Man(b1-4)GlcNAc(b1-4)[Fuc(a1-6)]GlcNAc
Method in brief: as §1

[11] = target: Gal(b1-3)GlcNAc(b1-3)Gal(b1-4)GlcNAc(b1-6)[Gal(b1-3)GlcNAc(b1-3)]Gal(b1-4)Glc
Method in brief: as §1

[12] = target: Gal(b1-3)GlcNAc(b1-3)Gal(b1-4)[Fuc(a1-3)]GlcNAc
Method in brief: as §1

[13] = target: Gal(b1-3)GlcNAc(b1-3)Gal(b1-4)[Fuc(a1-3)]GlcNAc(b1-6)[Gal(b1-3)GlcNAc(b1-3)]Gal(b1-4)Glc
Method in brief: as §1

[14] = target: Gal(b1-3)GlcNAc(b1-3)GalNAc
Method in brief: as §1

[15] = target: Gal(b1-3)GlcNAc(b1-6)Gal(b1-4)GlcNAc
Method in brief: as §1

[16] = target: Gal(b1-3)GlcNAc(b1-6)GalNAc
Method in brief: as §1

[17] = target: Gal(b1-3)GlcNAc(b1-6)[Gal(b1-3)]GalNAc
Method in brief: as §1

Gal(b1-3)GlcNAc6S = target: Gal(b1-3)GlcNAc6S
Method in brief: as §1

[18] = target: Gal(b1-3)[Fuc(a1-4)]GlcNAc
Method in brief: as §1

[19] = target: Gal(b1-3)[Fuc(a1-4)]GlcNAc(b1-2)Man
Method in brief: as §1

[20] = target: Gal(b1-3)[Fuc(a1-4)]GlcNAc(b1-2)Man(a1-3)[Gal(b1-3)[Fuc(a1-4)]GlcNAc(b1-2)Man(a1-6)]Man(b1-4)GlcNAc(b1-4)[Fuc(a1-6)]GlcNAc
Method in brief: as §1

[21] = target: Gal(b1-3)[Fuc(a1-4)]GlcNAc(b1-3)Gal(b1-3)[Fuc(a1-4)]GlcNAc
Method in brief: as §1

[22] = target: Gal(b1-3)[Fuc(a1-4)]GlcNAc(b1-3)Gal(b1-4)[Fuc(a1-3)]GlcNAc
Method in brief: as §1

[23] = target: Gal(b1-3)[Fuc(a1-4)]GlcNAc(b1-6)GalNAc
Method in brief: as §1

[24] = target: Gal(b1-3)[GlcNAc(b1-6)]GalNAc
Method in brief: as §1

[25] = target: Gal(b1-3)[Neu5Ac(a2-6)]GalNAc
Method in brief: as §1

[26] = target: Gal(b1-3)[Neu5Ac(a2-6)]GlcNAc(b1-4)Gal(b1-4)Glc
Method in brief: as §1

[27] = target: Gal(b1-3)[Neu5Ac(b2-6)]GalNAc
Method in brief: as §1

Gal(b1-4)Gal = target: Gal(b1-4)Gal
Method in brief: as §1

[28] = target: Gal(b1-4)GalNAc(a1-3)[Fuc(a1-2)]Gal(b1-4)GlcNAc
Method in brief: as §1

B1: SHCBP1-GST (Homo sapiens), Q8NEM2 (protein)
chain: MADGSLTGGGLEAAAMAPERMGWAVEQELASLEKGLFQDEDSCSDCSYRDKPGSSLQSFMPEGKTFFPEIFQTNQLLFYERFRAYQDYILADCKASEVQEFTAEFLEKVLEPSGWRAVWHTNVFKVLVEITDVDFAALKAVVRLAEPYLCDSQVSTFTMECMKELLDLKEHRLPLQELWVVFDDSGVFDQTALAIEHVRFFYQNIWRSWDEEEEDEYDYFVRCVEPRLRLHYDILEDRVPSGLIVDYHNLLSQCEESYRKFLNLRSSLSNCNSDSEQENISMVEGLKLYSEMEQLKQKLKLIENPLLRYVFGYQKNSNIQAKGVRSSGQKITHVVSSTMMAGLLRSLLTDRLCQEPGEEEREIQFHSDPLSAINACFEGDTVIVCPGHYVVHGTFSIADSIELEGYGLPDDIVIEKRGKGDTFVDCTGADIKISGIKFVQHDAVEGILIVHRGKTTLENCVLQCETTGVTVRTSAEFLMKNSDLYGAKGAGIEIYPGSQCTLSDNGIHHCKEGILIKDFLDEHYDIPKISMVNNIIHNNEGYGVVLVKPTIFSDLQENAEDGTEENKALKIQTSGEPDVAERVDLEELIECATGKMELCARTDPSEQVEGNCEIVNELIAASTQKGQIKKKRLSELGITQADDNLMSQEMFVGIVGNQFKWNGKGSFGTFLF
Question: B1 was tested. Which “glycan array binding signal (z-score)” value [1] did it give?
Answer: 1.03

Question: And the “glycan array binding signal (z-score)” value [2]?
Answer: -0.384

Question: What about the “glycan array binding signal (z-score)” value [3] of the same binder?
Answer: 2.98

Question: And the “glycan array binding signal (z-score)” value [4]?
Answer: 0.295

Question: What about the “glycan array binding signal (z-score)” value [5] of the same binder?
Answer: -0.156

Question: And the “glycan array binding signal (z-score)” value [6]?
Answer: -0.306

Question: And the “glycan array binding signal (z-score)” value [7]?
Answer: -0.333

Question: What about the “glycan array binding signal (z-score)” value [8] of the same binder?
Answer: -0.029

Question: And the “glycan array binding signal (z-score)” value [9]?
Answer: 0.698

Question: What about the “glycan array binding signal (z-score)” value [10] of the same binder?
Answer: 3.45

Question: What about the “glycan array binding signal (z-score)” value [11] of the same binder?
Answer: -0.213

Question: And the “glycan array binding signal (z-score)” value [12]?
Answer: -0.464

Question: What about the “glycan array binding signal (z-score)” value [13] of the same binder?
Answer: 0.731

Question: And the “glycan array binding signal (z-score)” value [14]?
Answer: 0.539

Question: What about the “glycan array binding signal (z-score)” value [15] of the same binder?
Answer: -0.78

Question: What about the “glycan array binding signal (z-score)” value [16] of the same binder?
Answer: 0.036

Question: And the “glycan array binding signal (z-score)” value [17]?
Answer: -0.122

Question: And the “glycan array binding signal (z-score)” value (Gal(b1-3)GlcNAc6S)?
Answer: -0.184

Question: What about the “glycan array binding signal (z-score)” value [18] of the same binder?
Answer: -0.321

Question: What about the “glycan array binding signal (z-score)” value [19] of the same binder?
Answer: -0.069

Question: And the “glycan array binding signal (z-score)” value [20]?
Answer: -0.03

Question: And the “glycan array binding signal (z-score)” value [21]?
Answer: -0.592

Question: What about the “glycan array binding signal (z-score)” value [22] of the same binder?
Answer: 0.129

Question: And the “glycan array binding signal (z-score)” value [23]?
Answer: 0.404

Question: What about the “glycan array binding signal (z-score)” value [24] of the same binder?
Answer: -0.463

Question: And the “glycan array binding signal (z-score)” value [25]?
Answer: -1.01

Question: What about the “glycan array binding signal (z-score)” value [26] of the same binder?
Answer: -0.056

Question: What about the “glycan array binding signal (z-score)” value [27] of the same binder?
Answer: -0.157

Question: And the “glycan array binding signal (z-score)” value (Gal(b1-4)Gal)?
Answer: -0.879

Question: What about the “glycan array binding signal (z-score)” value [28] of the same binder?
Answer: -0.536
